Experiment [1] addresses Integrin αIIbβ3 (human platelets) (human (endogenous in platelets)) (UniProt P08514+P05106). Put plainly: co-IP; washed human platelets (1 × 10^9/mL) stimulated with thrombin (0.5 U/mL) for the indicated times, NP-40 lysis; anti-β3 antibody SZ-21 and protein G, control IgG in parallel; blot with goat anti-ERp18 and anti-β3.
Experiment [2] has as its target Integrin αIIbβ3 (mouse platelets) (mouse (endogenous in platelets)) (UniProt Q9QUM0+O54890). Put plainly: flow cytometry on cells; washed platelets from WT and β3-null mice (2 × 10^7/mL) preincubated with FITC-conjugated ERp18-WT for 10 minutes at room temperature, then 0.1 U/mL thrombin or 2 mM Mn2+ for 5 minutes; surface-bound FITC-ERp18 read; only the binder purified. In general terms: Flow cytometry measures light scatter and fluorescence of single cells or particles in a stream.

Protein sequences, listed by entry. Tags and fused reporters are not part of them. Lines headed by an entry give the natural chain unless they say otherwise; changes in a name come on top. Residues count along the entry.
UniProt P08514: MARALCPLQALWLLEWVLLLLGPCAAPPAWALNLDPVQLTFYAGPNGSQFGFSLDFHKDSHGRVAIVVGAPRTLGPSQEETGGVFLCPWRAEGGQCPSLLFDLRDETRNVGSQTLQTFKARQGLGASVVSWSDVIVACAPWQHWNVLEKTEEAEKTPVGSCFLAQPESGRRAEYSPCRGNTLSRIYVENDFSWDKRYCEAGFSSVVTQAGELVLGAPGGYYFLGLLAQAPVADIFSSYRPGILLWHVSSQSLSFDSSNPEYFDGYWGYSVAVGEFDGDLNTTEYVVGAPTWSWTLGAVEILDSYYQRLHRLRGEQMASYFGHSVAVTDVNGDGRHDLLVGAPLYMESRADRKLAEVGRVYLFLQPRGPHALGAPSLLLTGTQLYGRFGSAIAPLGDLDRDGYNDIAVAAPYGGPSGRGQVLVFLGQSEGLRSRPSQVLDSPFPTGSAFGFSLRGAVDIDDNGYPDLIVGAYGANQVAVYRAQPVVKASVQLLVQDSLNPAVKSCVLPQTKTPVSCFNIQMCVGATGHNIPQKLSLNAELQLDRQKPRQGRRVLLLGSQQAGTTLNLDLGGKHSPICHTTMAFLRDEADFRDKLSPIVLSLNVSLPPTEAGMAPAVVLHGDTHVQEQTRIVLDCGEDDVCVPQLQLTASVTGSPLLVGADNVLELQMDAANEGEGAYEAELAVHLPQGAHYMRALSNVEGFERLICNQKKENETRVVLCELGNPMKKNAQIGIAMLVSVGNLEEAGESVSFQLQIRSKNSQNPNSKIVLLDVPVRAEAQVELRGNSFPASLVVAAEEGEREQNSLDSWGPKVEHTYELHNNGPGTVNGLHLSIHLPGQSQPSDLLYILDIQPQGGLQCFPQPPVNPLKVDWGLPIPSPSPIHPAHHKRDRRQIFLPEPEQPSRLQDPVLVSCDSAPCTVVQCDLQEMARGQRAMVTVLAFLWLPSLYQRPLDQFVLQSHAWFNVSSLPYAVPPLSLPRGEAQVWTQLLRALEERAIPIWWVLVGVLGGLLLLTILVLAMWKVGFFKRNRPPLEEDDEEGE
UniProt P05106: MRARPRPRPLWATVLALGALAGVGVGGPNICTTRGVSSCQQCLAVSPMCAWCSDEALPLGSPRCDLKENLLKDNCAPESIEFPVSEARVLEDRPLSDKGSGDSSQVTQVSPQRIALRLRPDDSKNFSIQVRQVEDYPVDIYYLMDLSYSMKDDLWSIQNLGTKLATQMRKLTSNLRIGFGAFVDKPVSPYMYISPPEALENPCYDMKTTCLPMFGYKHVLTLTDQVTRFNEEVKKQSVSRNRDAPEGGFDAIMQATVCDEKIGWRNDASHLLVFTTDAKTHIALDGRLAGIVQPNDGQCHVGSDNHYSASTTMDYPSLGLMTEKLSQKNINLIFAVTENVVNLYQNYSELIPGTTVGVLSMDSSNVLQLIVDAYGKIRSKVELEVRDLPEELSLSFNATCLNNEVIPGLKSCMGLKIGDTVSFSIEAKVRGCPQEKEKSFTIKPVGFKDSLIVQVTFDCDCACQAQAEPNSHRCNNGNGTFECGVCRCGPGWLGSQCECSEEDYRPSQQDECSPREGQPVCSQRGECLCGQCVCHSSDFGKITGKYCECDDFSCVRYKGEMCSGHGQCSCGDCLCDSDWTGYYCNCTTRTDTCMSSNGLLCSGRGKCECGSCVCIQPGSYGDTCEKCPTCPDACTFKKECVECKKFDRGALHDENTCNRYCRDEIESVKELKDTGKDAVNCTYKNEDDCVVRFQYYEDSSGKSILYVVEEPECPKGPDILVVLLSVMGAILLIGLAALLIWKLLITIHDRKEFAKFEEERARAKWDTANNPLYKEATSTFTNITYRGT
UniProt Q9QUM0: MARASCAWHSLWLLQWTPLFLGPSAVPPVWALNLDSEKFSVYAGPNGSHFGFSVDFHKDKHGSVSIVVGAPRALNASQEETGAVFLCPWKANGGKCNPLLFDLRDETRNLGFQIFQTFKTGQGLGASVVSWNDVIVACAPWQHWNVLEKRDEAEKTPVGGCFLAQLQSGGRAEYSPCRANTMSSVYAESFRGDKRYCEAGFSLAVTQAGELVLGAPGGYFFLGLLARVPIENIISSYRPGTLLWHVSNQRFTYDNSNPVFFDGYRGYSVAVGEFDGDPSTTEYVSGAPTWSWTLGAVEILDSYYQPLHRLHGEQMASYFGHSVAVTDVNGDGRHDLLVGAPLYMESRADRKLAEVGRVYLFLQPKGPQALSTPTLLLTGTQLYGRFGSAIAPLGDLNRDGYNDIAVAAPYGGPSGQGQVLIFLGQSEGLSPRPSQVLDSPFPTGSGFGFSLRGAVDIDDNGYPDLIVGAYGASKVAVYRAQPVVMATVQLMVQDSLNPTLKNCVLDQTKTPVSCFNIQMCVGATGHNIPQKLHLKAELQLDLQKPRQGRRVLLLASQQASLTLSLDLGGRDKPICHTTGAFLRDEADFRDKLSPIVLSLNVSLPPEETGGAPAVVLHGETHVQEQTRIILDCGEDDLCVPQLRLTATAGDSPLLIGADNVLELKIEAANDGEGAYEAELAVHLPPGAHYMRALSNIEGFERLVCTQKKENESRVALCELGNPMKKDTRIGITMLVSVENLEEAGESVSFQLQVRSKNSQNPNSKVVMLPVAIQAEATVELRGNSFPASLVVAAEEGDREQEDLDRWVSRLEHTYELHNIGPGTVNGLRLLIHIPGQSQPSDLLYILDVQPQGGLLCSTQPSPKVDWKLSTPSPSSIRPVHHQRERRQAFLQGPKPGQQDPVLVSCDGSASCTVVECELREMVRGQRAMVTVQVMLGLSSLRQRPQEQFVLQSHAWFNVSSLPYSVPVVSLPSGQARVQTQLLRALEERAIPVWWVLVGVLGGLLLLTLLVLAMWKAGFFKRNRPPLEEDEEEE
UniProt O54890: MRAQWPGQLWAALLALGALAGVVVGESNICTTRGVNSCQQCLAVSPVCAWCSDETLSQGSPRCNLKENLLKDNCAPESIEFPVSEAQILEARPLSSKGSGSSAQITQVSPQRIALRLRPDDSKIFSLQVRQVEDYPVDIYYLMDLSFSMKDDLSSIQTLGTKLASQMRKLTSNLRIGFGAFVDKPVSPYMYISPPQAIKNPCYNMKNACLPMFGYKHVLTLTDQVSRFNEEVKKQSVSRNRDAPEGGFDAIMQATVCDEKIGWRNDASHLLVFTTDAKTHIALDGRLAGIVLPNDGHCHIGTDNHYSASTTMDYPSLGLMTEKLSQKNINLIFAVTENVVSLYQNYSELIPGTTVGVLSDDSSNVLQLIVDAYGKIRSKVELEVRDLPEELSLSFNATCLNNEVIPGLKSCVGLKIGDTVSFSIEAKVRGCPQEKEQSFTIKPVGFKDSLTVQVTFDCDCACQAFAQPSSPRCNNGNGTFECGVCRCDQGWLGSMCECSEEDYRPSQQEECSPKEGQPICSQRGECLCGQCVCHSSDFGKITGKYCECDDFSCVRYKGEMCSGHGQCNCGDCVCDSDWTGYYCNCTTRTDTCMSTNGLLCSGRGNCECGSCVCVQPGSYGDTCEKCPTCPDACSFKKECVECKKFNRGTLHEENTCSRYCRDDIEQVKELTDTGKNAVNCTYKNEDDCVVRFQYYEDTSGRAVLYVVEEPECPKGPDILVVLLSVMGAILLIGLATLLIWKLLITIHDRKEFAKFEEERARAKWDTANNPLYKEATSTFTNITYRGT
UniProt O95881, residues 27-172: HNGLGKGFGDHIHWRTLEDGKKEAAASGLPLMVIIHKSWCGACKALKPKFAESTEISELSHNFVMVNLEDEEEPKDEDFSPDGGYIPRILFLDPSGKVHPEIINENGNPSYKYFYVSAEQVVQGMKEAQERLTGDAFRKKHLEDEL

Results are given in words; binding and its absence hold for the method and conditions named. For some assays here: In cells and extracts the contact can be indirect. Some entries that bind do so weakly or less than the wild type.

For “ERp18 (endogenous, human platelets) (from UniProt O95881 27-172) (enzyme)”, the binding result in experiment [1] is given as “binds”. Turning to “Recombinant human ERp18 wild-type protein (CGAC) (from UniProt O95881 27-172) (enzyme)”, the binding result in experiment [2] is “binds”.

The values above are taken from PMC11986512.
